Laboratory results published in PubChem BioAssay AID2669 (National Center for Advancing Translational Sciences (NCATS), 2010).
The inconclusive results got no clear call from the source; some entries with a clear call stand among them for comparison. Where the call is inconclusive, the potency comes from a doubtful curve fit. The source made the active and inactive calls. Calls come from the whole dose curve; as a rule, active = well fitted inhibition curve with a large enough effect; inconclusive = small, poorly fitted or top-dose-only effect, or effect the other way; inactive = flat fitted curve, though single readings scatter.

Experiment: qHTS Assay Multiplex Screening to Identify Dual Action Probes in a Cell Model of Huntington: Cytoprotection (Protease relase)
Details: PC12 HttQ103 cells, Cytotox-Glo protease release, 40 h; series mostly up to 46.1 µM
How it was run: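 Inducible PC12 line expressing HTT exon 1 (Q103)-GFP, induced with 100 nM tebufenozide (final) and treated with compounds. Cytoprotection read as released protease activity by Cytotox-Glo luminescence.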

| Compound | Potency |
| --- | --- |
| c1csc(-c2cn3c(n2)SCC3)c1 | inactive |
| COc1ccc(C(=O)Cc2ccc(OC)c(OC)c2)cc1 | inconclusive: 15.8 µM [inhibitor, full curve, poor fit] |
| Cn1nnnc1Sc1ncnc2scc(I)c12 | active: 11.2 µM |
| O=C(O)/C=C/C(O)c1ccc(Cl)cc1 (stereo not drawn) | inactive |
| O=C(Nc1cc([N+](=O)[O-])ccc1Cl)c1ccc2c(c1)OCO2 | inconclusive: 12.6 µM [inhibitor, partial curve, poor fit] |
| CC(=O)c1ccc(-c2csc3ncnc(Sc4nnnn4C)c23)cc1 | inconclusive: 14.1 µM [inhibitor, partial curve, poor fit] |
| COC(=O)C(O)(CC(=O)Nc1ccc(OC(F)(F)F)cc1)C(F)(F)F (stereo not drawn) | inactive |
| Cn1cccc1C(=O)OCC(=O)Nc1cc(C(C)(C)C)nn1-c1ccccc1 | inconclusive: 28.2 µM [inhibitor, partial curve, poor fit] |
| COC(=O)c1ccc(NC(=O)CN2C(=O)CSC2=O)cc1 | inactive |
| Cc1cccc(/C=N/NC(=O)c2cc3c(s2)-c2ccccc2CC3)c1 | inconclusive: 10 µM [inhibitor, full curve, poor fit] |
| Cc1nnc2n1N=CC=C(c1ccccc1)S2 | inconclusive: 7.94 µM [inhibitor, full curve, poor fit] |
| CCOC(=O)c1sc2nc(N3CCOCC3)c3c(c2c1N)CCN(C)C3 | inactive |
| Cn1nnnc1Sc1ncnc2scc(-c3ccccc3[N+](=O)[O-])c12 | active: 20 µM |

Two successive records already listed:

| Compound | Potency |
| --- | --- |
| COC(=O)C(O)(CC(=O)Nc1ccc(OC(F)(F)F)cc1)C(F)(F)F (stereo not drawn) | inactive |
| Cn1cccc1C(=O)OCC(=O)Nc1cc(C(C)(C)C)nn1-c1ccccc1 | inconclusive: 28.2 µM [inhibitor, partial curve, poor fit] |
